# Test results reported in the supplement of paper PMC10849652.
# Sequences of proteins named here, by UniProt entry; tags and fusion partners are left off. A change or cut given only in a name is not applied to a line headed by its entry.
# UniProt Q7L7X3: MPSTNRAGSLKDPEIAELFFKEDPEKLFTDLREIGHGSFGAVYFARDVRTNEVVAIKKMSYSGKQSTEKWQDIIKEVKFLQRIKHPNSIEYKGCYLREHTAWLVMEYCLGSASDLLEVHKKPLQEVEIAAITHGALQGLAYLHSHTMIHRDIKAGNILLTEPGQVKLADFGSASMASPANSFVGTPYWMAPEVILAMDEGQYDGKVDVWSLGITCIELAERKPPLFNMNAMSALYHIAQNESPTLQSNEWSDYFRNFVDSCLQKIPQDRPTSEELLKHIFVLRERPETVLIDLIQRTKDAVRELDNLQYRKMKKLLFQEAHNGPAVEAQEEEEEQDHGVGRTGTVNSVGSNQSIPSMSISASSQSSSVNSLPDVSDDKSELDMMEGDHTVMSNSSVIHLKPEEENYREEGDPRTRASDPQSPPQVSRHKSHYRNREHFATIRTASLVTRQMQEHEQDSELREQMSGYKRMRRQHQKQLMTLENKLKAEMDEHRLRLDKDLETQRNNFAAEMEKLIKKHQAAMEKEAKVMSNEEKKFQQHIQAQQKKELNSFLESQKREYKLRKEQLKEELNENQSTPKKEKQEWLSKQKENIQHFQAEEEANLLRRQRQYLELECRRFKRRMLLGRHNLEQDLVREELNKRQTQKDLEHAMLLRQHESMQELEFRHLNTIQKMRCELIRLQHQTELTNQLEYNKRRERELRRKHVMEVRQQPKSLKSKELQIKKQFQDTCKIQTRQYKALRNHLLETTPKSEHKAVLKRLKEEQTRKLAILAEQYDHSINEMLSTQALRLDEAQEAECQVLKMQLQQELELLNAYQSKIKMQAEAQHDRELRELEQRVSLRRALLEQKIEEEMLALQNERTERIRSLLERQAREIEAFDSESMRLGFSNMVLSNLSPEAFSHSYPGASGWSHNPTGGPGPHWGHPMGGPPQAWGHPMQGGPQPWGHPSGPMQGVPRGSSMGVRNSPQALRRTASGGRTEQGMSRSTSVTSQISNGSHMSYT
# UniProt Q66K14, whole entry, looked up: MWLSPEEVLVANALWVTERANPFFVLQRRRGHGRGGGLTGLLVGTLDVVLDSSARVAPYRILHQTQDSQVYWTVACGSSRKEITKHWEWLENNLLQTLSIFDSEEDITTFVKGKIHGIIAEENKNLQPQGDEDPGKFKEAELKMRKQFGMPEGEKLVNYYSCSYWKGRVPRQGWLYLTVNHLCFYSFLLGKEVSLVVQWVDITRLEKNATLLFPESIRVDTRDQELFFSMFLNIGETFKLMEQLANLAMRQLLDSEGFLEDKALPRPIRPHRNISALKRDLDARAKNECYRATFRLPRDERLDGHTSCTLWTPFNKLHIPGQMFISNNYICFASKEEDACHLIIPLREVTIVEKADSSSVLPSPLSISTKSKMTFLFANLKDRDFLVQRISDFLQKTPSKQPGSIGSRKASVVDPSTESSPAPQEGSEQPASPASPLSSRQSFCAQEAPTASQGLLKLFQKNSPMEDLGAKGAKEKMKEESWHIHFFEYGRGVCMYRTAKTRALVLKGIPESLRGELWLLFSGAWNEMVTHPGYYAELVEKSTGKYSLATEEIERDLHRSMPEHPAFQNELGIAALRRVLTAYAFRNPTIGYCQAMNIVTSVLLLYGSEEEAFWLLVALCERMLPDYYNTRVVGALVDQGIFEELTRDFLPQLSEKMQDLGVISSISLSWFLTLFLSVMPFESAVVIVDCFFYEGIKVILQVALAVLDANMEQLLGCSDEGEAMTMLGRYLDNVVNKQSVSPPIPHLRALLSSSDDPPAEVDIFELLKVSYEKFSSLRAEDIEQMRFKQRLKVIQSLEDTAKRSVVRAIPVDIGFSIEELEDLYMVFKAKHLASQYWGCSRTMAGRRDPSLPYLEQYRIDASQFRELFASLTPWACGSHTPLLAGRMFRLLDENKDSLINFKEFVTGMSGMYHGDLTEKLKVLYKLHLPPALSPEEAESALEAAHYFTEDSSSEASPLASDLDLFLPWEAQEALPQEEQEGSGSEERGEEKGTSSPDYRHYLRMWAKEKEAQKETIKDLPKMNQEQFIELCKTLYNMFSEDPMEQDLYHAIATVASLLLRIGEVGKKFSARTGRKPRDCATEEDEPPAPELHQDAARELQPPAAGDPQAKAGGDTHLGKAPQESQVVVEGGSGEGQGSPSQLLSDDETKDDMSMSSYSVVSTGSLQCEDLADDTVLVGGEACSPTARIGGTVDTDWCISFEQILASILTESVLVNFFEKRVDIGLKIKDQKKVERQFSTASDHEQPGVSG
# UniProt Q9NUW8, whole entry, looked up: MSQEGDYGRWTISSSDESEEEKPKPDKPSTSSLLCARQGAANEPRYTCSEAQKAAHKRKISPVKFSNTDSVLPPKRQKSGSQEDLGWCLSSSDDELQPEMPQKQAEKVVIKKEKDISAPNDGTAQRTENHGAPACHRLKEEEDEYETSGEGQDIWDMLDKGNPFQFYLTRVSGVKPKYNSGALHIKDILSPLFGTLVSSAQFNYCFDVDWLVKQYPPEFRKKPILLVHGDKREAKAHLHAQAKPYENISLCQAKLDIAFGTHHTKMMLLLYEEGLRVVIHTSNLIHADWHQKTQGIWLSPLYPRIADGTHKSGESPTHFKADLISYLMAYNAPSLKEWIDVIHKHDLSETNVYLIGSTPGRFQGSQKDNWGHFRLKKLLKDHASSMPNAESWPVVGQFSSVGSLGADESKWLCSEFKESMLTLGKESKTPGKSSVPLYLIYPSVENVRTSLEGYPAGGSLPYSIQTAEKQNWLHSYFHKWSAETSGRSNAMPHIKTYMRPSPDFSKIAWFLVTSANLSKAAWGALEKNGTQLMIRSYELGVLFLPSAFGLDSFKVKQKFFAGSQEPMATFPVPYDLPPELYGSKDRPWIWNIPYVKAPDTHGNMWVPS
# UniProt Q12800: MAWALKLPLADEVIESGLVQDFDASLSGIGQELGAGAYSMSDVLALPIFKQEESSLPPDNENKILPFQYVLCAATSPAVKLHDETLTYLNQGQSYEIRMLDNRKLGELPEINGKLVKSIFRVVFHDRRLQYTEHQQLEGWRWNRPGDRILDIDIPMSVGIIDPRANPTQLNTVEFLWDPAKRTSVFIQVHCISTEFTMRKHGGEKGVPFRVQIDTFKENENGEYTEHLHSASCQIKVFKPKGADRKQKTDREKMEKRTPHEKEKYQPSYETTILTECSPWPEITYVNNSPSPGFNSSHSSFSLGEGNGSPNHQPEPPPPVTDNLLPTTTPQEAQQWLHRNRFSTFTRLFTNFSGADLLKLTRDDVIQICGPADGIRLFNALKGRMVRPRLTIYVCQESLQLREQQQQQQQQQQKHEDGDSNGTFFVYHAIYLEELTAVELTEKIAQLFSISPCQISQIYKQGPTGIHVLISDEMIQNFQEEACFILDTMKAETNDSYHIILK
# UniProt Q9NZ01: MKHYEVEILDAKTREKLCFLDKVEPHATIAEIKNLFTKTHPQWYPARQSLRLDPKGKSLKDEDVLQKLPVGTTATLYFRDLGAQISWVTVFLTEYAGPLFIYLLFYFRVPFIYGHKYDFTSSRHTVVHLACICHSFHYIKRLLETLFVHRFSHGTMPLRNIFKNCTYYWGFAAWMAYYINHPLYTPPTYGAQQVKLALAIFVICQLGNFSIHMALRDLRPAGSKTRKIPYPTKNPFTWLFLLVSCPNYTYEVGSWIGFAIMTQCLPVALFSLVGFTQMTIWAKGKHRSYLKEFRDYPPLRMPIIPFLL
# UniProt O60907: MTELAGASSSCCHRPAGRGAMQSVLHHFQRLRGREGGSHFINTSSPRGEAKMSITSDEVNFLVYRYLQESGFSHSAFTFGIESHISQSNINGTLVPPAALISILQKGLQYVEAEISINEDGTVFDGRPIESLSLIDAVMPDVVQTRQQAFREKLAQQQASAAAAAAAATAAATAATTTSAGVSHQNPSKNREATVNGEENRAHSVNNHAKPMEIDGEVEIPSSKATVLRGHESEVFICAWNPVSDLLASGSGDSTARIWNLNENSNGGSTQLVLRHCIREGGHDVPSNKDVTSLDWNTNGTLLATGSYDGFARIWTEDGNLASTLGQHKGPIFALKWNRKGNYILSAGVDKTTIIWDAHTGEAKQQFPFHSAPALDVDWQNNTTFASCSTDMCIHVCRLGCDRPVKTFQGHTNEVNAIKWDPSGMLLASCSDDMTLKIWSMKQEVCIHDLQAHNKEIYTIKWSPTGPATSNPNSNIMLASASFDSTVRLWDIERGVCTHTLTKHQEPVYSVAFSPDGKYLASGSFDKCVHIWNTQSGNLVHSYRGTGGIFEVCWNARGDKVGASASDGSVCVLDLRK
# UniProt Q15554: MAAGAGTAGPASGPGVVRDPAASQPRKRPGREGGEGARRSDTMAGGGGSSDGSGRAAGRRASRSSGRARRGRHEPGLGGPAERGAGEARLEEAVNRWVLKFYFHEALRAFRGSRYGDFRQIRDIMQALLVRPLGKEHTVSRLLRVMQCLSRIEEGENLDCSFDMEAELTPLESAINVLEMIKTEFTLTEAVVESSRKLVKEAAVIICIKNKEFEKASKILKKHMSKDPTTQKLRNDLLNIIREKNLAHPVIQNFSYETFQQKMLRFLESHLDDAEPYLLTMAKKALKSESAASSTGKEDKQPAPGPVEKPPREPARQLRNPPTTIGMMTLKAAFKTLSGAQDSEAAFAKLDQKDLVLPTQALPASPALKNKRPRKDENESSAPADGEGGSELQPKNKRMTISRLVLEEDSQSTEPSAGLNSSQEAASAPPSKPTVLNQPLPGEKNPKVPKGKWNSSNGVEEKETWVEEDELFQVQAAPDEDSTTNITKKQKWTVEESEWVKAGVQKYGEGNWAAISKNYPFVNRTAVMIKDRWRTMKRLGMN
# UniProt Q7Z7C8, whole entry, looked up: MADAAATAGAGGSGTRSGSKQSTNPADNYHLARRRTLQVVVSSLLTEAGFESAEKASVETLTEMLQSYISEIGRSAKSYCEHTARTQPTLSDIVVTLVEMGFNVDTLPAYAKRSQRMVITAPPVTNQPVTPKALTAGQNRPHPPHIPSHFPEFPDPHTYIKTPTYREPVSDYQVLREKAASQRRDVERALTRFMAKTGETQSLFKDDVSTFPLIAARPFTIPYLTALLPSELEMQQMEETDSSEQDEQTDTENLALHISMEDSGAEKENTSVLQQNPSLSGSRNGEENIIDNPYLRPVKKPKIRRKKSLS
# UniProt Q5JUR7: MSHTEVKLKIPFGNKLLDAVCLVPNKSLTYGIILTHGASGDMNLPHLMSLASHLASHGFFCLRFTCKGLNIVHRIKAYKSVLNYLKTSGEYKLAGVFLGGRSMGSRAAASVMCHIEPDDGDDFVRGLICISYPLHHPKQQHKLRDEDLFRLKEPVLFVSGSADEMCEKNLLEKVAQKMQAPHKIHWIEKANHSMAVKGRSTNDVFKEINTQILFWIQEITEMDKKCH
# UniProt Q8IWB9: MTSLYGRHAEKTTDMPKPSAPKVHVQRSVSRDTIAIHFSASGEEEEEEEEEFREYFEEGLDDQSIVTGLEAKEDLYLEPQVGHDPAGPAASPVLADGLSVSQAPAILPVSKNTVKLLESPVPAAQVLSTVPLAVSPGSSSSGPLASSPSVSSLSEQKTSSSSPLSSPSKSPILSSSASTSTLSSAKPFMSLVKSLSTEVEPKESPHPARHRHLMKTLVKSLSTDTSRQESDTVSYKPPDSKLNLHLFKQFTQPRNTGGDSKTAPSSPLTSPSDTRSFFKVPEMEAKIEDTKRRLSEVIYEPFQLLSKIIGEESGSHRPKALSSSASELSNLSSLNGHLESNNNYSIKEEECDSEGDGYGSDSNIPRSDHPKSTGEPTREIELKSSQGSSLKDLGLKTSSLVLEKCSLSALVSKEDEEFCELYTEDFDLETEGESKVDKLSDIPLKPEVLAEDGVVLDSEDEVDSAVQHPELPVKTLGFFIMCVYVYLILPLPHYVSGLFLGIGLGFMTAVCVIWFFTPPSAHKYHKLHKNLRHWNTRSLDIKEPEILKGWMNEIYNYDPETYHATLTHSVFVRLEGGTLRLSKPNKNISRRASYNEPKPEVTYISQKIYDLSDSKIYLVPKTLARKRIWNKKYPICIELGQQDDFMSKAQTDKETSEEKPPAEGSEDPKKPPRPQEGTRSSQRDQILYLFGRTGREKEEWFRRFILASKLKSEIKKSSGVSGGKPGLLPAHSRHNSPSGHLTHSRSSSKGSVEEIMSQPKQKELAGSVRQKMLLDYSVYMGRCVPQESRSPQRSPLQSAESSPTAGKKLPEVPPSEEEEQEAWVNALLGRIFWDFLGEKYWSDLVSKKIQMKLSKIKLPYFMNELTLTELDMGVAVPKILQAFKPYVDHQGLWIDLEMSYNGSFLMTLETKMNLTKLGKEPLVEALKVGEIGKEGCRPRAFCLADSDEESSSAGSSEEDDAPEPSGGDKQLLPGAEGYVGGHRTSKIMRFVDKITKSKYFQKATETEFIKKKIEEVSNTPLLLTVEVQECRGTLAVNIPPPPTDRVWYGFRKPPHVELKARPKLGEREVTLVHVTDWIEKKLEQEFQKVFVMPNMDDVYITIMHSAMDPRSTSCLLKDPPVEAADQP
# Some of the results follow.
# Assays:
# Assay in all cases: log2 fold change, soluble protein after heating vs DMSO (PISA); higher = thermal stabilisation; K562 lysate, 10 uM; active = over 0.2 and 3.5 SD of the protein, either way, in both replicates (recomputed)
# alvocidib = compound: CN1CC[C@H](c2c(O)cc(O)c3c(=O)cc(-c4ccccc4Cl)oc23)[C@H](O)C1 [alvocidib]
# Procedure, shortened: (§1)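 K562 pellets were dounce-homogenised in PBS pH 7.4 with 1 mM MgCl2, and the crude extract at 1 mg/mL protein was treated with 10 μM compound for 30 min. Aliquots were heated for 3 min across 48°C-58°C, pooled, and brought to 0.5% NP-40 at 4°C; soluble protein was the supernatant after 21,000xg for 90 min. Soluble protein was quantified by TMTpro 16plex LC-MS/MS with channel sums equalised, and reported as log2 fold change in thermal stability against DMSO controls, with values from duplicates.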
# Tubastatin A = compound: CN1CCc2c(c3ccccc3n2Cc2ccc(C(=O)NO)cc2)C1 [Tubastatin A]
# Procedure, shortened: as §1
# [1] = compound: CNC(=O)C1=CC=CC=C1NC2=NC(=NC=C2Cl)NC3=C(C=C(C=C3)N4CCOCC4)OC
# Procedure, shortened: as §1
# defactinib = compound: CNC(=O)c1ccc(Nc2ncc(C(F)(F)F)c(NCc3nccnc3N(C)S(C)(=O)=O)n2)cc1 [defactinib]
# Procedure, shortened: as §1
# [2] = compound: CNc1nc(-c2ccc3c(N)n[nH]c3c2)cc(N2C[C@@H](C(=O)NC3CCCCC3)CC[C@H]2C)n1
# Procedure, shortened: as §1
# encorafenib = compound: COC(=O)N[C@@H](C)CNc1nccc(-c2cn(C(C)C)nc2-c2cc(Cl)cc(NS(C)(=O)=O)c2F)n1 [encorafenib]
# Procedure, shortened: as §1
# [3] = compound: COC(=O)[C@H](CCSC)NC(=O)C1=C(C=C(C=C1)NC[C@H](CS)N)C2=CC=CC=C2
# Procedure, shortened: as §1
# alisertib = compound: COc1cc(Nc2ncc3c(n2)-c2ccc(Cl)cc2C(c2c(F)cccc2OC)=NC3)ccc1C(=O)O [alisertib]
# Procedure, shortened: as §1
# [4] = compound: COc1cc2nc(-c3cc(F)ccc3O)nc(N[C@@H]3CNC[C@H]3C(C)(C)O)c2cc1OC
# Procedure, shortened: as §1
# gefitinib = compound: COc1cc2ncnc(Nc3ccc(F)c(Cl)c3)c2cc1OCCCN1CCOCC1 [gefitinib]
# Procedure, shortened: as §1
# lapatinib = compound: CS(=O)(=O)CCNCc1ccc(-c2ccc3ncnc(Nc4ccc(OCc5cccc(F)c5)c(Cl)c4)c3c2)o1 [lapatinib]
# Procedure, shortened: as §1
# pictilisib = compound: CS(=O)(=O)N1CCN(Cc2cc3nc(-c4cccc5[nH]ncc45)nc(N4CCOCC4)c3s2)CC1 [pictilisib]
# Procedure, shortened: as §1
# crizotinib = compound: C[C@@H](Oc1cc(-c2cnn(C3CCNCC3)c2)cnc1N)c1c(Cl)ccc(F)c1Cl [crizotinib]
# Procedure, shortened: as §1
# [5] = compound: C[C@H](C1=CC=C(C=C1)C(=O)NC2=C3C=CNC3=NC=C2)N
# Procedure, shortened: as §1
# duvelisib = compound: C[C@H](Nc1ncnc2nc[nH]c12)c1cc2cccc(Cl)c2c(=O)n1-c1ccccc1 [duvelisib]
# Procedure, shortened: as §1
# gandotinib = compound: Cc1cc(Nc2cc(CN3CCOCC3)c3nc(C)c(Cc4ccc(Cl)cc4F)n3n2)n[nH]1 [gandotinib]
# Procedure, shortened: as §1
# tozasertib = compound: Cc1cc(Nc2cc(N3CCN(C)CC3)nc(Sc3ccc(NC(=O)C4CC4)cc3)n2)n[nH]1 [tozasertib]
# Procedure, shortened: as §1
# doramapimod = compound: Cc1ccc(-n2nc(C(C)(C)C)cc2NC(=O)Nc2ccc(OCCN3CCOCC3)c3ccccc23)cc1 [doramapimod]
# Procedure, shortened: as §1
# bafetinib = compound: Cc1ccc(NC(=O)c2ccc(CN3CC[C@H](N(C)C)C3)c(C(F)(F)F)c2)cc1Nc1nccc(-c2cncnc2)n1 [bafetinib]
# Procedure, shortened: as §1
# [6] = compound: Cc1cccc(CC(=O)N2CCc3c2ccc(-c2cn(C)c4ncnc(N)c24)c3F)n1
# Procedure, shortened: as §1
Target,log2 fold change (alvocidib),log2 fold change (Tubastatin A),log2 fold change [1],log2 fold change (defactinib),log2 fold change [2],log2 fold change (encorafenib),log2 fold change [3],log2 fold change (alisertib),log2 fold change [4],log2 fold change (gefitinib),log2 fold change (lapatinib),log2 fold change (pictilisib),log2 fold change (crizotinib),log2 fold change [5],log2 fold change (duvelisib),log2 fold change (gandotinib),log2 fold change (tozasertib),log2 fold change (doramapimod),log2 fold change (bafetinib),log2 fold change [6]
TAOK1 (UniProt Q7L7X3),inactive: -0.018,inactive: 0.006,inactive: -0.06,inactive: -0.05,inactive: -0.008,inactive: 0.03,inactive: 0.01,inactive: 0.019,inactive: -0.025,inactive: -0.01,inactive: -0.021,inactive: -0.004,inactive: -0.06,inactive: 0.055,inactive: 0.001,inactive: -0.136,inactive: -0.01,inactive: 0.028,inactive: -0.019,inactive: 0.006
TBC1D9B isoform 2 (UniProt Q66K14),inactive: -0.086,inactive: 0,inactive: -0.039,inactive: 0.039,inactive: 0.046,inactive: 0.03,inactive: -0.037,inactive: 0.03,inactive: 0.098,inactive: 0.027,inactive: -0.045,inactive: 0.01,inactive: -0.082,inactive: -0.081,inactive: -0.028,inactive: 0.043,inactive: -0.024,inactive: 0.044,inactive: -0.038,inactive: 0.145
TDP1 (UniProt Q9NUW8),inactive: 0.011,inactive: 0.072,inactive: 0.102,inactive: -0.009,inactive: 0.009,inactive: -0.161,inactive: 0.061,inactive: -0.043,inactive: 0.012,–,inactive: -0.014,inactive: -0.018,inactive: 0.031,inactive: -0.018,inactive: -0.052,inactive: 0,inactive: -0.082,inactive: -0.037,inactive: 0.048,inactive: -0.029
TBCE (UniProt Q15813),inactive: -0.008,inactive: -0.162,inactive: -0.026,inactive: 0.031,inactive: -0.028,inactive: -0.008,active: 0.265,inactive: -0.008,inactive: -0.006,inactive: -0.006,inactive: -0.019,inactive: -0.039,inactive: -0.042,inactive: -0.002,inactive: 0.025,inactive: -0.034,inactive: -0.004,inactive: 0.001,inactive: 0.033,inactive: 0.039
TFCP2 (UniProt Q12800),inactive: 0.015,inactive: -0.215,inactive: 0.169,inactive: 0.003,inactive: 0.009,inactive: 0.093,inactive: 0.044,inactive: 0.019,inactive: -0.049,inactive: -0.033,inactive: 0.043,inactive: 0.083,inactive: -0.093,inactive: 0,inactive: -0.016,inactive: 0.098,inactive: 0.021,inactive: 0.168,inactive: -0.075,inactive: 0.004
TANGO2 isoform 4 (UniProt Q6ICL3),inactive: -0.053,inactive: -0.02,inactive: 0.067,inactive: 0.012,inactive: -0.017,inactive: 0.01,inactive: 0.011,inactive: -0.019,inactive: -0.004,inactive: 0,inactive: 0.013,inactive: -0.018,inactive: -0.018,inactive: 0.057,inactive: 0.005,inactive: -0.066,inactive: 0.054,inactive: 0.009,inactive: 0.114,inactive: 0
TCF25 (UniProt Q9BQ70),inactive: 0.01,inactive: 0.01,inactive: 0,inactive: 0,inactive: -0.026,inactive: 0.05,inactive: -0.004,inactive: 0.025,–,inactive: 0.114,–,inactive: 0.015,inactive: -0.092,inactive: 0.109,inactive: -0.004,inactive: 0.006,inactive: 0.304,inactive: 0.033,inactive: 0.006,inactive: 0.215
TCP1 (UniProt P17987),inactive: 0.015,inactive: 0.019,inactive: 0,inactive: -0.018,inactive: 0.008,inactive: -0.011,inactive: -0.022,inactive: 0.014,inactive: 0.005,inactive: -0.028,inactive: -0.024,inactive: 0.003,inactive: 0.01,inactive: 0.012,inactive: 0.025,inactive: -0.007,inactive: -0.008,inactive: -0.001,inactive: 0.03,inactive: -0.006
TECR (UniProt Q9NZ01),inactive: 0.05,inactive: -0.015,inactive: -0.046,inactive: 0.052,inactive: -0.008,inactive: 0.068,inactive: -0.104,inactive: 0.053,inactive: 0.048,inactive: -0.008,inactive: -0.082,inactive: -0.032,inactive: -0.138,inactive: 0.011,inactive: -0.056,active: -0.448,inactive: 0.056,inactive: -0.045,inactive: -0.049,inactive: 0.015
TBC1D10B (UniProt Q4KMP7),inactive: -0.009,inactive: 0.067,inactive: 0.026,inactive: 0.071,inactive: -0.047,inactive: 0.014,inactive: -0.147,inactive: -0.003,inactive: -0.013,inactive: 0.023,inactive: 0.029,inactive: -0.048,inactive: -0.01,inactive: -0.005,inactive: 0.013,inactive: -0.01,inactive: -0.066,inactive: -0.027,inactive: 0.021,inactive: 0.039
TBL1X (UniProt O60907),inactive: 0,inactive: -0.111,inactive: -0.019,inactive: 0.016,inactive: -0.134,inactive: -0.007,inactive: -0.03,inactive: 0.015,inactive: 0.014,inactive: -0.008,inactive: -0.011,inactive: -0.047,inactive: 0.085,inactive: -0.016,inactive: -0.032,inactive: 0.05,inactive: 0.004,inactive: 0.027,inactive: -0.035,inactive: 0.036
TERF2IP (UniProt Q9NYB0),inactive: 0.087,inactive: 0.014,inactive: 0.009,inactive: -0.008,inactive: 0.019,inactive: 0,inactive: -0.038,inactive: -0.015,inactive: 0.011,inactive: -0.003,inactive: -0.007,inactive: 0.007,inactive: 0.021,active: 0.249,inactive: 0.022,inactive: -0.122,inactive: -0.023,inactive: -0.016,inactive: 0.004,inactive: -0.181
TERF2 (UniProt Q15554),inactive: 0.004,inactive: 0.022,inactive: 0.023,inactive: 0.051,inactive: -0.001,inactive: -0.005,inactive: 0.082,inactive: -0.07,inactive: -0.023,inactive: 0.023,inactive: 0.023,inactive: 0.005,inactive: -0.032,inactive: 0.047,inactive: 0.032,inactive: -0.151,inactive: -0.004,inactive: -0.006,inactive: -0.057,inactive: 0.022
TAF8 isoform 2 (UniProt Q7Z7C8),inactive: -0.003,inactive: -0.007,inactive: -0.068,inactive: 0.029,inactive: -0.035,inactive: 0.055,inactive: -0.019,inactive: 0.011,inactive: 0.029,inactive: 0.038,inactive: 0.043,inactive: -0.014,inactive: -0.028,inactive: 0.013,inactive: 0.035,inactive: 0.035,inactive: 0.073,inactive: 0.037,inactive: -0.115,inactive: 0.072
TEX30 (UniProt Q5JUR7),inactive: -0.021,inactive: -0.066,inactive: 0.066,inactive: -0.097,inactive: 0.07,inactive: 0.047,inactive: 0.007,inactive: 0.101,inactive: 0.041,inactive: 0.058,inactive: -0.07,inactive: -0.122,inactive: -0.035,active: -0.517,inactive: 0.102,inactive: 0.007,inactive: -0.003,inactive: 0.036,inactive: 0.066,inactive: 0.069
TEX2 isoform 2 (UniProt Q8IWB9),inactive: 0.038,inactive: 0.036,inactive: -0.052,inactive: -0.042,inactive: 0.059,inactive: -0.045,inactive: 0.04,inactive: -0.03,inactive: 0.088,inactive: 0.039,inactive: -0.009,inactive: -0.015,inactive: 0.034,inactive: 0.2,inactive: 0.066,inactive: -0.209,inactive: 0.076,inactive: 0.055,inactive: -0.156,inactive: -0.085

# Taken from the listing (2 entries):
Target,log2 fold change (alvocidib),log2 fold change (Tubastatin A),log2 fold change [1],log2 fold change (defactinib),log2 fold change [2],log2 fold change (encorafenib),log2 fold change [3],log2 fold change (alisertib),log2 fold change [4],log2 fold change (gefitinib),log2 fold change (lapatinib),log2 fold change (pictilisib),log2 fold change (crizotinib),log2 fold change [5],log2 fold change (duvelisib),log2 fold change (gandotinib),log2 fold change (tozasertib),log2 fold change (doramapimod),log2 fold change (bafetinib),log2 fold change [6]
TBC1D10B (UniProt Q4KMP7),inactive: -0.009,inactive: 0.067,inactive: 0.026,inactive: 0.071,inactive: -0.047,inactive: 0.014,inactive: -0.147,inactive: -0.003,inactive: -0.013,inactive: 0.023,inactive: 0.029,inactive: -0.048,inactive: -0.01,inactive: -0.005,inactive: 0.013,inactive: -0.01,inactive: -0.066,inactive: -0.027,inactive: 0.021,inactive: 0.039
TBL1X (UniProt O60907),inactive: 0,inactive: -0.111,inactive: -0.019,inactive: 0.016,inactive: -0.134,inactive: -0.007,inactive: -0.03,inactive: 0.015,inactive: 0.014,inactive: -0.008,inactive: -0.011,inactive: -0.047,inactive: 0.085,inactive: -0.016,inactive: -0.032,inactive: 0.05,inactive: 0.004,inactive: 0.027,inactive: -0.035,inactive: 0.036
